{"source": "PubChem BioAssay AID1259284 (Sanger Institute, 2017)", "purpose": "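Kinase genes needed for growth or acting with cancer drugs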 (primary screen)", "cell system": "SW48 human colorectal cancer cells", "knock-down reagent": "siRNA pool against human genes", "challenge": "anchor drug BYL719 at 1 µM, cetuximab at 5 µg/ml or trametinib at 10 nM, or DMSO vehicle alone", "read-out": "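Viability scaled to non-targeting control pool, robust z-score from controls, and synergy scores for each drug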", "scale": "robust z-score, no drug: higher = more cells survive knock-down; viability, no drug: higher = more viable cells", "call rule": "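Called essential when the robust z-score of viability without drug falls below -3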", "calls": "active = essential without drug; inactive = no change without drug", "note": "The deposit covers 794 reagents; shown is a part drawn at random. 16 of all reagents (2%) count as active. 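Calls concern knock-down without drug only; drug synergy was judged apart, with scores above 0.15 taken as synergy.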 No viability above 1 is reported: the scale is capped. Not all columns of the deposit are shown. The record does not give: the amount of reagent, the time to read-out."}
{"Gene": "CDK20", "PubChem SID": "SID152152456", "robust z-score, no drug": 0.426, "viability, no drug (fraction of control)": 1, "activity call": "inactive"}
{"Gene": "DYRK2", "PubChem SID": "SID152156553", "robust z-score, no drug": 0.385, "viability, no drug (fraction of control)": 0.997, "activity call": "inactive"}
{"Gene": "PRKCH", "PubChem SID": "SID56478829", "robust z-score, no drug": 0.426, "viability, no drug (fraction of control)": 1, "activity call": "inactive"}
{"Gene": "AXL", "PubChem SID": "SID152148834", "robust z-score, no drug": 0.426, "viability, no drug (fraction of control)": 1, "activity call": "inactive"}
{"Gene": "GRK4", "PubChem SID": "SID152155634", "robust z-score, no drug": 0.426, "viability, no drug (fraction of control)": 1, "activity call": "inactive"}
{"Gene": "PRKDC", "PubChem SID": "SID56478960", "robust z-score, no drug": -2.65, "viability, no drug (fraction of control)": 0.736, "activity call": "inactive"}
{"Gene": "FRK", "PubChem SID": "SID56478519", "robust z-score, no drug": 0.426, "viability, no drug (fraction of control)": 1, "activity call": "inactive"}
{"Gene": "MAP4K4", "PubChem SID": "SID56478747", "robust z-score, no drug": -0.756, "viability, no drug (fraction of control)": 0.899, "activity call": "inactive"}
{"Gene": "EIF2AK2", "PubChem SID": "SID56478676", "robust z-score, no drug": -0.478, "viability, no drug (fraction of control)": 0.922, "activity call": "inactive"}
{"Gene": "POLR2B", "PubChem SID": "SID134315545", "robust z-score, no drug": -4.34, "viability, no drug (fraction of control)": 0.591, "activity call": "active"}
{"Gene": "MTOR", "PubChem SID": "SID135620602", "robust z-score, no drug": 0.426, "viability, no drug (fraction of control)": 1, "activity call": "inactive"}
{"Gene": "TGFBR1", "PubChem SID": "SID152153272", "robust z-score, no drug": 0.426, "viability, no drug (fraction of control)": 1, "activity call": "inactive"}
{"Gene": "ALPK2", "PubChem SID": "SID152151764", "robust z-score, no drug": 0.426, "viability, no drug (fraction of control)": 1, "activity call": "inactive"}
{"Gene": "NEK2", "PubChem SID": "SID56478772", "robust z-score, no drug": -0.233, "viability, no drug (fraction of control)": 0.943, "activity call": "inactive"}
{"Gene": "THNSL1", "PubChem SID": "SID152147285", "robust z-score, no drug": 0.426, "viability, no drug (fraction of control)": 1, "activity call": "inactive"}
{"Gene": "PRKD1", "PubChem SID": "SID152147507", "robust z-score, no drug": 0.426, "viability, no drug (fraction of control)": 1, "activity call": "inactive"}
{"Gene": "CDK19", "PubChem SID": "SID56478856", "robust z-score, no drug": 0.426, "viability, no drug (fraction of control)": 1, "activity call": "inactive"}
{"Gene": "CDK1", "PubChem SID": "SID56478584", "robust z-score, no drug": 0.426, "viability, no drug (fraction of control)": 1, "activity call": "inactive"}
{"Gene": "STK16", "PubChem SID": "SID152154415", "robust z-score, no drug": 0.426, "viability, no drug (fraction of control)": 1, "activity call": "inactive"}
{"Gene": "PIK3CG", "PubChem SID": "SID56478988", "robust z-score, no drug": -0.428, "viability, no drug (fraction of control)": 0.927, "activity call": "inactive"}
{"Gene": "PRKAG2", "PubChem SID": "SID135621825", "robust z-score, no drug": 0.426, "viability, no drug (fraction of control)": 1, "activity call": "inactive"}
{"Gene": "MPP2", "PubChem SID": "SID152153278", "robust z-score, no drug": -0.581, "viability, no drug (fraction of control)": 0.914, "activity call": "inactive"}
{"Gene": "PGK1", "PubChem SID": "SID56479130", "robust z-score, no drug": 0.426, "viability, no drug (fraction of control)": 1, "activity call": "inactive"}
{"Gene": "PAK1", "PubChem SID": "SID135620692", "robust z-score, no drug": -2.38, "viability, no drug (fraction of control)": 0.759, "activity call": "inactive"}
{"Gene": "BCR", "PubChem SID": "SID152154242", "robust z-score, no drug": 0.17, "viability, no drug (fraction of control)": 0.978, "activity call": "inactive"}
{"Gene": "ACVRL1", "PubChem SID": "SID152155046", "robust z-score, no drug": 0.426, "viability, no drug (fraction of control)": 1, "activity call": "inactive"}
{"Gene": "MAGI3", "PubChem SID": "SID152154544", "robust z-score, no drug": 0.426, "viability, no drug (fraction of control)": 1, "activity call": "inactive"}
{"Gene": "NEK9", "PubChem SID": "SID56478903", "robust z-score, no drug": 0.426, "viability, no drug (fraction of control)": 1, "activity call": "inactive"}

In a second layout: 2 of the entries above.
{"Gene":"NEK2","PubChem SID":"SID56478772","robust z-score, no drug":-0.233,"viability, no drug (fraction of control)":0.943,"activity call":"inactive"}
{"Gene":"THNSL1","PubChem SID":"SID152147285","robust z-score, no drug":0.426,"viability, no drug (fraction of control)":1,"activity call":"inactive"}
